Results taken from paper PMC10687025, “Endosomal Arl4A attenuates EGFR degradation by binding to the ESCRT-II component VPS36” (Nature Communications, 2023).
No constants are given. Whether binding was seen depends on the method and setting. For part of these data: Binding can be weak; no strength is given. Sequences can lack the tags named with a protein. Blank lines part the entries; values can stand above or below the molecule they belong to.

Protein sequences, listed by entry. Tags and fused reporters are not part of them. Lines headed by an entry give the natural chain unless they say otherwise; changes in a name come on top.
UniProt P49703: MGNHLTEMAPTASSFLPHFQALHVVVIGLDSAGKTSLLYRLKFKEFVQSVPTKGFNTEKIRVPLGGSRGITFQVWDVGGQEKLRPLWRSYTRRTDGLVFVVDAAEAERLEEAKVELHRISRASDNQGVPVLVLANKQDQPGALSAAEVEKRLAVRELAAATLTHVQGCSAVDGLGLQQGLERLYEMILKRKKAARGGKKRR

Columns and labels:
[1] = target: T1, Arl4A T51N fused to the LexA DNA-binding domain (UniProt P40617); assay: two-hybrid; yeast strain L40; LexA DNA-binding domain fusions (pBTM116) against Gal4 activation domain fusions; His+ colonies patched on selective plates and assayed for β-galactosidase activity on filters; 30 °C
T1 sequence: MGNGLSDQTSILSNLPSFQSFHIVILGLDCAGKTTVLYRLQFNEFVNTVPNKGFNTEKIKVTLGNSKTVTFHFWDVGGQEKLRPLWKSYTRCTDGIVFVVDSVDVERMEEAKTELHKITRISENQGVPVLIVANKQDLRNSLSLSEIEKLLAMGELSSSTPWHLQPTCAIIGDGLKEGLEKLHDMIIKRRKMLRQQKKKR

[2] = target: Arl4D T51N fused to the LexA DNA-binding domain (UniProt P49703); assay: as above
[3] = target: GST-VPS36 (201–386) A6 mutant (UniProt Q86VN1); assay: pull-down; 2 μg GST fusion protein on glutathione beads with 2 μg His-tagged Arl4A in 1 ml binding buffer (20 mM Tris-HCl pH 8.0, 150 mM NaCl, 5 mM MgCl2, 1 mM EDTA, 1 mM DTT, 10% glycerol, 1% Triton X-100), 1 h at 4 °C; anti-His blot; both purified
[4] = target: GST-VPS36 (201–386) A3 mutant (UniProt Q86VN1); assay: as above
[5] = target: GST-VPS36 (201–386) A4 mutant (UniProt Q86VN1); assay: as above

- binding [1]: binds
Molecule: VPS36 (201–386) Ala-A4 mutant fused to Gal4 AD (from UniProt Q86VN1) (domain or fragment)

- binding [2]: no binding
B1: Gal4 transcriptional activation domain-fused VPS36 (330–386) (domain or fragment, UniProt Q86VN1 330-386)
chain: TVSEKGSLTSEEFAKLVGMSVLLAKERLLLAEKMGHLCRDDSVEGLRFYPNLFMTQS

Continued, molecule first:

Molecule: VPS36 (201–386) Ala-A3 mutant fused to Gal4 AD (from UniProt Q86VN1) (domain or fragment)
- binding [1]: binds

B2: His-tagged Arl4A T51N (protein, UniProt P40617 1-200)
chain: MGNGLSDQTSILSNLPSFQSFHIVILGLDCAGKTTVLYRLQFNEFVNTVPNKGFNTEKIKVTLGNSKTVTFHFWDVGGQEKLRPLWKSYTRCTDGIVFVVDSVDVERMEEAKTELHKITRISENQGVPVLIVANKQDLRNSLSLSEIEKLLAMGELSSSTPWHLQPTCAIIGDGLKEGLEKLHDMIIKRRKMLRQQKKKR
- binding [3]: no binding (tested: 2 μg His-tagged Arl4A in 1 ml)
- binding [4]: no binding (tested: 2 μg His-tagged Arl4A in 1 ml)
- binding [5]: no binding (tested: 2 μg His-tagged Arl4A in 1 ml)
